Entries after “also recorded” stand apart in the source; their conditions may differ. For at least one compound, name, drawing or mass did not settle the structure.
Columns and labels:
calreticulin (CRT) = assay: Surface expression of calreticulin in Kasumi-3 cells (flow cytometry), Example 19; format: cell-based, human; details: increasing amounts, overnight; FIG. 14B
Experimental: (§1) The surface expression of apoptosis marker […] or the […] protein calreticulin (CRT) was studied. Briefly, the Kasumi-3 cells were incubated overnight in the presence of vehicle only control, increasing amounts of azacitidine or venetoclax, or a combination of azacitidine and venetoclax. The following day, the cells were analyzed by flow cytometry for surface expression of annexin or calreticulin (CRT). […] In addition, except for very high concentrations of azacitidine and venetoclax (100 μM each), the apoptosis induced by azacitidine and venetoclax was not additive compared to corresponding single treatments (FIG. 14A). […] In addition, except for very high concentrations of azacitidine and venetoclax (100 μM each), the apoptosis induced by azacitidine and venetoclax was not additive compared to corresponding single treatments (FIG. 14B).

annexin V = assay: Surface expression of annexin V in Kasumi-3 cells (flow cytometry); format: cell-based, human; details: increasing amounts, overnight; FIG. 14A
Experimental: as §1

[1] = tested on: K652 human chronic myelogenous leukemia (CML) cells; assay: Phagocytosis of K652 cells by human macrophages (flow cytometry): venetoclax and/or SIRPα-Fc-CD40L; format: cell-based; details: 1 μM venetoclax overnight and/or SIRPα-Fc-CD40L for 4 hours; combination p<0.0001 vs control; FIG. 4
Kasumi-3 AML cells = assay: Phagocytosis of Kasumi-3 AML cells by human macrophages (flow cytometry): azacitidine and/or venetoclax and/or SIRPα-Fc-CD40L; format: cell-based; details: 50 μg/ml SIRPα-Fc-CD40L (p<0.05), 10 μM azacitidine (p<0.0001), 1 μM venetoclax (p<0.05); each combination p<0.0001; 4 hours; FIG. 14C
Experimental: Briefly, the Kasumi-3 AML cells were labeled with a green fluorescent tracker and co-cultured with human macrophages and treated with (1) vehicle alone control, (2) 50 μg/ml of the SIRPα-Fc-CD40L chimeric protein, (3) 10 μM azacitidine, (4) 50 μg/ml of the SIRPα-Fc-CD40L chimeric protein+10 μM azacitidine, (5) 1 μM venetoclax, (6) 50 μg/ml of the SIRPα-Fc-CD40L chimeric protein+1 μM venetoclax, or (7) 50 μg/ml of the SIRPα-Fc-CD40L chimeric protein+1 μM venetoclax+10 μM azacitidine. The cells were incubated at 37° C. in the presence of 5% CO2 for 4 hours. After this incubation, the cells were harvested and treated with an anti-CD11b antibody (a macrophage marker) and were analyzed using flow cytometry. Positive phagocytosis was determined by the overlap in signals of tumor (the green fluorescent tracker) and macrophage (anti-CD11b antibody staining). A phagocytosis index was calculated by setting the maximum phagocytosis value to 1, and then normalizing all other replicates accordingly. The phagocytosis index was plotted for the indicated treatments.

SMILES: CC1(C)CCC(CN2CCN(c3ccc(C(=O)NS(=O)(=O)c4ccc(NCC5CCOCC5)c([N+](=O)[O-])c4)c(Oc4cnc5[nH]ccc5c4)c3)CC2)=C(c2ccc(Cl)cc2)C1 [venetoclax]
- expression of calreticulin compared to the vehicle only-treated Kasumi-3 cells (calreticulin (CRT)): induced the expression of calreticulin in Kasumi-3 cells in a dose-dependent manner; also recorded: increased the expression
- expression of annexin V (apoptosis marker) compared to the vehicle only-treated Kasumi-3 cells (annexin V): induced the expression of annexin V in Kasumi-3 cells in a dose-dependent manner; also recorded: increased the expression
- level of phagocytosis (phagocytosis index) compared to the control K562 cells [1]: increased level of phagocytosis
- level of phagocytosis (phagocytosis index) compared to the vehicle only-treated Kasumi-3 cells (Kasumi-3 AML cells): increased level of phagocytosis
